# Experimental data: PubChem BioAssay AID1224830 (NIAID, 2016)
# Test: 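Regulators of TLR4 signalling towards TNF-alpha in macrophage-like cells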 (primary screen)
# Cells: human THP-1 monocytic leukaemia cells, TNF dual-luciferase reporter clone, PMA-differentiated to macrophage-like cells
# Knock-down reagent: siRNA pool against human genes, 50 nM
# Duration: LPS for 4 h, given about 3 days after siRNA transfection
# Challenge: bacterial LPS (TLR4 ligand), 10 ng/ml
# Read-out: 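TNF firefly reporter luminescence divided by renilla, normalised to the plate median, then turned into a robust z-score for each replicate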
# Reading the numbers: TNF reporter robust z-score: higher = stronger TNF reporter response to LPS
# Hit rule: 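a well is active when its z-score exceeds 2.8 or falls below -1.5; control wells carry no call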
# The whole screen tested about 18,000 reagents; shown is an unselected part. In the full data, about 2,900 (16%) were called active. 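Calls are made per well; low scores hint the gene aids the LPS response, high scores that it dampens it.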 Repeated entries: four replicate wells of each siRNA pool. Reagent sequences are not shown.
target,TNF reporter robust z-score,outcome
RALB,-0.53,inactive
RALB,0.93,inactive
RALB,0.55,inactive
RALB,-0.17,inactive
KRTAP19-1,0.44,inactive
KRTAP19-1,0.4,inactive
KRTAP19-1,-0.05,inactive
RABL2B,-1.09,inactive
RABL2B,0.06,inactive
RABL2B,-0.82,inactive
RABL2B,-1.18,inactive
CDC6,-0.3,inactive
CDC6,0.69,inactive
CDC6,-0.09,inactive
CDC6,-0.2,inactive
SAMD7,-1.3,inactive
SAMD7,-1.13,inactive
SAMD7,-1.01,inactive
SAMD7,-0.73,inactive
PPP1R11,-0.14,inactive
PPP1R11,0,inactive
PPP1R11,-1.61,active
PPP1R11,-1.09,inactive
SH2B3,0.42,inactive
SH2B3,0.04,inactive
SH2B3,-0.51,inactive
SH2B3,0.07,inactive
NFE2L1,-0.58,inactive
NFE2L1,-0.55,inactive
NFE2L1,-0.21,inactive
NFE2L1,0.26,inactive
NLRP3,0.59,inactive
NLRP3,-0.18,inactive
NLRP3,0.22,inactive
NLRP3,-0.5,inactive
STAT2,0.09,inactive
STAT2,0.48,inactive
STAT2,0.8,inactive
STAT2,0.51,inactive
FBXO40,-1.44,inactive
FBXO40,1.31,inactive
FBXO40,-0.97,inactive
FBXO40,1.39,inactive
GPR152,0.06,inactive
GPR152,1.15,inactive
GPR152,0.72,inactive
GPR152,1.03,inactive
OTOS,1.37,inactive
OTOS,2.58,inactive
OTOS,1.45,inactive
OTOS,1.6,inactive
GRIA3,-0.97,inactive
GRIA3,-1.56,active
GRIA3,-1.36,inactive
GRIA3,-1.05,inactive
ATP2B2,0.09,inactive
ATP2B2,-0.05,inactive
ATP2B2,0.57,inactive
ATP2B2,2.35,inactive
SOX4,,inactive
SOX4,1.21,inactive
SOX4,0.75,inactive
SOX4,2.16,inactive
SOX4,0.46,inactive
SST,4.2,active
SST,1.27,inactive
SST,1.43,inactive
SST,-0.77,inactive
GSX2,1.01,inactive
GSX2,0.5,inactive
GSX2,-0.06,inactive
GSX2,0.64,inactive
SYF2,1.46,inactive
SYF2,-0.65,inactive
SYF2,-0.8,inactive
SYF2,-1.06,inactive

Quoted from the listing, 3 entries:
target,TNF reporter robust z-score,outcome
CDC6,0.69,inactive
CDC6,-0.09,inactive
CDC6,-0.2,inactive
